Source: paper doi:10.1101/2021.04.10.439283
Results are given in words; binding and its absence hold for the method and conditions named. Some results given as binding are weak or reduced against the parent protein; the word gives no strength. Tags and fused reporters may be left off the sequences shown.

How the values were obtained:
Test in all cases: two-hybrid
[1] = biological target: T1, Dna2-Nuclease domain (451-900 aa) fused to lexA-DBD (S. cerevisiae) (UniProt P38859)
T1 sequence: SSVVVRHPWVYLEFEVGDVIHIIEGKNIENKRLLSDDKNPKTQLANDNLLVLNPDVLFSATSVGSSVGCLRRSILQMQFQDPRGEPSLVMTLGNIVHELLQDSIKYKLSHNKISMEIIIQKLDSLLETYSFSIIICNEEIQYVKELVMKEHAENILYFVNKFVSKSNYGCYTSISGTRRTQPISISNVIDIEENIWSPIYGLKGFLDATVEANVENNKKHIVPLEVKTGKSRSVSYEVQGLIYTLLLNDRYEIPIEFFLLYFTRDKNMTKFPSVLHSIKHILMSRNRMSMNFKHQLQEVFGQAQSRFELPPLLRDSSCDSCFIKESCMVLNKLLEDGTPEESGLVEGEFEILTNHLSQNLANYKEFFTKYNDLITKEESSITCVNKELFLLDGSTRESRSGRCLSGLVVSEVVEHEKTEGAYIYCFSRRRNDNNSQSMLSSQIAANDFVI

[2] = biological target: T2, Nej1 fused to lexA-DBD (S. cerevisiae) (UniProt Q06148)
T2 sequence: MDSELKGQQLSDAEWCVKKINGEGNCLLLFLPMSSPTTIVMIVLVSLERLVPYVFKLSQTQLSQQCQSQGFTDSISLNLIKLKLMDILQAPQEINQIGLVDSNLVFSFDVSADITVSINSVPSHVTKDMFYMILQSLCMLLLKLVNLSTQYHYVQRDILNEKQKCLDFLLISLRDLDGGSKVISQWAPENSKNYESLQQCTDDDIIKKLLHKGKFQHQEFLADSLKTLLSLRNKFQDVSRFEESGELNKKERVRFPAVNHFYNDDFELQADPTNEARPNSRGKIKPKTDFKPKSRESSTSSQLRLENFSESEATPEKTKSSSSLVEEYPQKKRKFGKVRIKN

[3] = biological target: T3, Rad50 fused to lexA-DBD (S. cerevisiae) (UniProt P12753)
T3 sequence: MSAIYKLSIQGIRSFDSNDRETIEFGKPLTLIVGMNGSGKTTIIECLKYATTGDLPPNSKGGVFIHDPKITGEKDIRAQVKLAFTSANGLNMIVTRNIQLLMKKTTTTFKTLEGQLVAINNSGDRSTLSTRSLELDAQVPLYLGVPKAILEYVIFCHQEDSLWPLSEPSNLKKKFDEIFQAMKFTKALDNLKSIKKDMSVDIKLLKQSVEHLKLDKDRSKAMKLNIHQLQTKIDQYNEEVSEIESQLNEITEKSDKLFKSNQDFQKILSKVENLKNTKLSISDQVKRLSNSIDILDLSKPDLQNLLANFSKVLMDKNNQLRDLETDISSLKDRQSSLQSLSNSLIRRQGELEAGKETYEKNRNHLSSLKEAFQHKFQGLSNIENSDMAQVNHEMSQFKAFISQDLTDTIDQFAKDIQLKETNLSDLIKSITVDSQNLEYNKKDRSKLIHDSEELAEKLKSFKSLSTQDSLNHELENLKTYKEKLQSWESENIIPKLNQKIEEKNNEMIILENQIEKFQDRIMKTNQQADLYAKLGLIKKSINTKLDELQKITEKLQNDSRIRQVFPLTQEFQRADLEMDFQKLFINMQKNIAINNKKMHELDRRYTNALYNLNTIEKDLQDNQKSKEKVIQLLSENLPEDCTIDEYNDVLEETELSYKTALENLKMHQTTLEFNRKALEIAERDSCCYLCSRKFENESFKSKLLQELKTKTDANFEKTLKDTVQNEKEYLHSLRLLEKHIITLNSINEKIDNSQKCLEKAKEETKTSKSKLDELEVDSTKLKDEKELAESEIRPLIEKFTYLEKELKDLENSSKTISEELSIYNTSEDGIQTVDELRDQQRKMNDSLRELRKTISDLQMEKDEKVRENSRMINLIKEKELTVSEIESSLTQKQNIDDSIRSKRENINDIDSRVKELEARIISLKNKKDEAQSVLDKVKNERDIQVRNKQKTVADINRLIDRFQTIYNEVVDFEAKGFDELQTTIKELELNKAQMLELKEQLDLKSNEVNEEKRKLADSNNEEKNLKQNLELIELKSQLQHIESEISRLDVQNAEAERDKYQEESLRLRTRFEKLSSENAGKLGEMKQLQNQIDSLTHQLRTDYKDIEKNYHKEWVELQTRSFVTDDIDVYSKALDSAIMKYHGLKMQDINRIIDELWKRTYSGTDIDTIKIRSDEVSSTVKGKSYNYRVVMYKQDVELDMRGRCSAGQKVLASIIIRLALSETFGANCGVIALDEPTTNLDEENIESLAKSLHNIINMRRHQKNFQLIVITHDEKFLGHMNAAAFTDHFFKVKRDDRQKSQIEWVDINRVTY

binding [1]: binds | binding [2]: binds | binding [3]: binds
B1: Sae2 fused to HA-AD (protein, UniProt P46946 1-345)
chain: MVTGEENVYLKSSLSILKELSLDELLNVQYDVTTLIAKRVQALQNRNKCVLEEPNSKLAEILCHEKNAPQQSSQTSAGPGEQDSEDFILTQFDEDIKKESAEVHYRNENKHTVQLPLVTMPPNRHKRKISEFSSPLNGLNNLSDLEDCSDTVIHEKDNDKENKTRKLLGIELENPESTSPNLYKNVKDNFLFDFNTNPLTKRAWILEDFRPNEDIAPVKRGRRKLERFYAQVGKPEDSKHRSLSVVIESQNSDYEFAFDNLRNRSKSPPGFGRLDFPSTQEGNEDKKKSQEIIRRKTKYRFLMASNNKIPPYEREYVFKREQLNQIVDDGCFFWSDKLLQIYARC
